Experimental data published in patent publication US20120039806A1.
No constants are given. Whether binding was seen depends on the method and setting. Where a sequence is shown, tags or fusion partners need not be part of it.

Target: Actin (Sigma)
Test: ELISA, actin coated, biotinylated soluble protein, SA-HRP

B1: Cire-ecto (soluble FLAG-tagged C-type lectin Cire, control) (receptor, mouse, not shown: small tags and cut ends)
chain (part 1 of 2): NSGLHHILDAQKMVWNHR
chain (part 2 of 2): VKVYKIPSSQEENNQMNVYQELTQLKAGVDRLCRSCPWDWTHFQGSCYFFSVAQKSWNDSATACHNVGAQLVVIKSDEEQNFLQQTSKKRGYTWMGLIDMSKESTWYWVDGSPLTLSFMKYWSKGEPNNLGEEDCAEFRDDGWNDTKCTNKKFWICKKLSTSCPSK
modifications: biotinylated with BirA where the filing says 'biotinylated' (ELISA, microarray)
Question: For B1, which binding is on record?
Answer: no binding
